In patent US20060073149A1:
No constants are given. Whether binding was seen depends on the method and setting. Some entries that bind do so weakly or less than the wild type.

Protein sequences, listed by entry. Tags and fused reporters are not part of them. Residues count along the entry.
UniProt P05067, residues 672-711: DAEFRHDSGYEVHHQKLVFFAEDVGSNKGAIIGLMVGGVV

Target: soluble Aβ (UniProt P05067)
Test: worded comparison of affinities; method not given

binding: binds
B1: humanized 266 antibody (antibody, human IgG1, kappa, V domains shown)
VH: EVQLVESGGGLVQPGGSLRLSCAASGFTFSRYSMSWVRQAPGKGLELVAQINSVGNSTYYPDTVKGRFTISRDNAKNTLYLQMNSLRAEDTAVYYCASGDYWGQGTLVTVSS
VL: DVVMTQSPLSLPVTLGQPASISCRSSQSLIYSDGNAYLHWFLQKPGQSPRLLIYKVSNRFSGVPDRFSGSGSGTDFTLKISRVEAEDVGVYYCSQSTHVPWTFGQGTKVEIKR
